Source: PubChem BioAssay AID504793 (Drosophila RNAi Screening Center, 2011)

- Aim: 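Knock-downs allowing continued mitosis even though DNA is damaged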 (primary screen)
- Cells: Drosophila S2R+ cells
- Knock-down reagent: long dsRNA against Drosophila genes, about 0.25 µg dsRNA per well
- Time to read-out: 4 days of dsRNA, then 4 hours of drug before read-out
- Treatment: doxorubicin 0.5 µM for 4 hours to cause double-strand breaks, in cells also given a low, harmless dose of dsRNA against nbs to sensitise the assay
- Measurement: 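Mitotic index as the number of phospho-histone H3-positive cells in each well following doxorubicin, given as raw counts without normalisation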
- Scale: mitotic cells: higher = more cells in mitosis, weaker G2 arrest
- Rule for the call: 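Genes are called active only when high mitotic counts were reproduced with independent dsRNAs and mitosis was checked for delay without damage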
- Calls: active = confirmed in follow-up tests; inactive = not confirmed
In all, the deposit lists about 23,000 reagents; shown is an unselected part of those that have a named target and a result. Over the whole deposit, 62 (0.27%) are marked active. 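Calls come from follow-up tests whose scores are not deposited, so confirmed genes may have low counts here; counts are not normalised per plate.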 Raw values are not corrected between plates. Names joined by + are all predicted targets of the reagent. Reagent sequences are not shown.

target gene	amplicon	mitotic cells, replicate 1	call
CG1317	DRSC08305	6	inactive
CG13962	DRSC02304	4	inactive
CG13962	DRSC30042	8	inactive
Shc	DRSC11284	5	inactive
Osi11	DRSC12282	1	inactive
qjt	DRSC10060	6	inactive
qjt	DRSC24901	11	inactive
Orcokinin	DRSC04202	4	inactive
CG4597	DRSC10432	2	inactive
RpS14a	DRSC18710	10	inactive
CG2691	DRSC19866	6	inactive
CG14180 (retired record)	DRSC10179	3	inactive
CG14180 (retired record)	DRSC25107	8	inactive
CG13562	DRSC04200	9	inactive
CG13562	DRSC28501	7	inactive
CG14131	DRSC10135	4	inactive
CG14131	DRSC27727	3	inactive
Elba2	DRSC00731	6	inactive
Elba2	DRSC28543	3	inactive
lmgA + lmgB	DRSC03566	4	inactive
lmgA + lmgB	DRSC24454	9	inactive
RpL37A	DRSC02899	7	inactive
RpL37A	DRSC25051	12	inactive
neb	DRSC03577	4	inactive
neb	DRSC28464	5	inactive
bbc	DRSC06958	20	inactive
bbc	DRSC22309	7	inactive
CG17163	DRSC20901	9	inactive
CG6321	DRSC10623	8	inactive
CG12288	DRSC02155		inactive
CG12307	DRSC02159	5	inactive
Nmdmc	DRSC16760	3	inactive
Nmdmc	DRSC26212	6	inactive
Cdk4	DRSC07358	6	inactive
Cdk4	DRSC27263	4	inactive
Bug22	DRSC02842	3	inactive
AttD	DRSC16272	4	inactive
MFS9	DRSC15560	4	inactive
CG15186	DRSC12566	8	inactive
CG15186	DRSC26271	5	inactive
CG32727	DRSC17519	6	inactive
CG7556	DRSC20052	10	inactive
CG7556	DRSC26701	8	inactive
CG11893	DRSC14429	6	inactive
CG11893	DRSC29725	7	inactive
Sf3b1	DRSC00535	7	inactive
Cht2	DRSC08650	10	inactive
Cht2	DRSC24801	4	inactive
CG13801	DRSC08335	12	inactive
CG17803	DRSC15275	12	inactive
CG17803	DRSC22811	11	inactive
Ank2	DRSC08894	17	inactive
Ank2	DRSC09666	2	inactive
Ank2	DRSC10338	3	inactive
Ank2	DRSC11278	8	inactive
Ank2	DRSC22922	5	inactive
Ank2	DRSC29821	10	inactive
CG7565	DRSC10881	6	inactive
CG6138	DRSC02933	4	inactive
PpV	DRSC18700	30	inactive
PpV	DRSC23307	5	inactive
PpV	DRSC29344	8	inactive
CG10508	DRSC11612	4	inactive
CG10508	DRSC11613	2	inactive
CG18284	DRSC02661	4	inactive
CG18284	DRSC20756	7	inactive
CG18284	DRSC25271	2	inactive
tant	DRSC11401	2	inactive
RIOK1	DRSC09853	5	inactive
Mer	DRSC20259	3	inactive
CG8119	DRSC20083	10	inactive
CG8119	DRSC27407	4	inactive
Grd	DRSC11178	7	inactive
Grd	DRSC28513	4	inactive
Hexo2	DRSC18671	14	inactive
Trs23	DRSC03190	6	inactive
Trs23	DRSC29243	5	inactive
Chmp1	DRSC10401	8	inactive
Chmp1	DRSC25878	11	inactive
mib2	DRSC02623	2	inactive
MFS12	DRSC07268	7	inactive
CG14965	DRSC08424	2	inactive
CG32054	DRSC10684	2	inactive
CG32054	DRSC24449	9	inactive
CG31650	DRSC03140	15	inactive
CG31650	DRSC28972	4	inactive
tei	DRSC07616	10	inactive
tei	DRSC23756	5	inactive
Debcl	DRSC04965	1	inactive
Debcl	DRSC30010	7	inactive
Smyd4-4	DRSC05956	5	inactive
shu	DRSC04484	5	inactive
shu	DRSC27390	5	inactive
Mst57Dc	DRSC16745	12	inactive
Bili	DRSC14405	8	inactive
Rab11	DRSC16809	8	inactive
Rab11	DRSC23620	9	inactive
mRpL13	DRSC02076	7	inactive
mRpL13	DRSC30067	5	inactive
CG13791 (retired record)	DRSC02295	4	inactive
ERp60	DRSC07309	8	inactive
ERp60	DRSC24471	6	inactive
Eglp3	DRSC04293	1	inactive
Eglp3	DRSC25630	8	inactive
ap	DRSC04917	8	inactive
CG32669	DRSC18864	8	inactive
wuc	DRSC06152	7	inactive
CG3107	DRSC04888	12	inactive
CG6985	DRSC16164	5	inactive
CG6985	DRSC24923	4	inactive

Already shown: 10 of the entries above.
target gene	amplicon	mitotic cells, replicate 1	call
CG32727	DRSC17519	6	inactive
CG7556	DRSC20052	10	inactive
CG7556	DRSC26701	8	inactive
CG11893	DRSC14429	6	inactive
CG11893	DRSC29725	7	inactive
Sf3b1	DRSC00535	7	inactive
Cht2	DRSC08650	10	inactive
Cht2	DRSC24801	4	inactive
CG13801	DRSC08335	12	inactive
CG17803	DRSC15275	12	inactive
